log2 fold change data for 40 targets are collected here from the supplement of paper PMC10849652.

Protein sequences, listed by entry. Tags and fused reporters are not part of them. Lines headed by an entry give the natural chain unless they say otherwise; changes in a name come on top.
UniProt Q6P587: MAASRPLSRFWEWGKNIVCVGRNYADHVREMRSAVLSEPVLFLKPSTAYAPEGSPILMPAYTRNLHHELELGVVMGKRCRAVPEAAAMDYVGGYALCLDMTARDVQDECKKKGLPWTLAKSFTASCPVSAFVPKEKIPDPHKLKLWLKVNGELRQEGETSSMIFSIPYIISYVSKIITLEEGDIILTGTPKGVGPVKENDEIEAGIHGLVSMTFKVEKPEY
UniProt Q01469, whole entry, looked up: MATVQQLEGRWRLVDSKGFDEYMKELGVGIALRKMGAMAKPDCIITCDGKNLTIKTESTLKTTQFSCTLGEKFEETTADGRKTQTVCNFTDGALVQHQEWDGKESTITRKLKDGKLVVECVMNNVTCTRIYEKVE
UniProt Q9UBQ6: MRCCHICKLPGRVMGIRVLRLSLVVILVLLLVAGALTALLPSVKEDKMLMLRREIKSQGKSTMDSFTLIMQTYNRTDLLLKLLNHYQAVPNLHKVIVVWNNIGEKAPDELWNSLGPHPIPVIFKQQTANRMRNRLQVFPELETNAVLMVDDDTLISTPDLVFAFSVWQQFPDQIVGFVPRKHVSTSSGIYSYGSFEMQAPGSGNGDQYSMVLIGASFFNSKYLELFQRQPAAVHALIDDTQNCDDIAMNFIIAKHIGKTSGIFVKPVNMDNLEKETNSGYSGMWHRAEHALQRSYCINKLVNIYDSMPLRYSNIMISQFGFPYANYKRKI
UniProt Q9NWS6: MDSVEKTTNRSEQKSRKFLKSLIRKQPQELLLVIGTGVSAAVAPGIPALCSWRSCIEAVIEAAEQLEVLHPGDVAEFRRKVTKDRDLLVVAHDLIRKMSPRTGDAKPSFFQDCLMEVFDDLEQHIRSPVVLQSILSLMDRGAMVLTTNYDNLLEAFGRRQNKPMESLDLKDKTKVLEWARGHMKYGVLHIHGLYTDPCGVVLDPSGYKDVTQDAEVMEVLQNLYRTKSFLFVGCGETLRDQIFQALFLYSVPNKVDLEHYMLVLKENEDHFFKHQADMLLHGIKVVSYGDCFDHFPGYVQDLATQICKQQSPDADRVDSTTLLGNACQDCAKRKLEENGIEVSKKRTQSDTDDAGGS
UniProt P38117: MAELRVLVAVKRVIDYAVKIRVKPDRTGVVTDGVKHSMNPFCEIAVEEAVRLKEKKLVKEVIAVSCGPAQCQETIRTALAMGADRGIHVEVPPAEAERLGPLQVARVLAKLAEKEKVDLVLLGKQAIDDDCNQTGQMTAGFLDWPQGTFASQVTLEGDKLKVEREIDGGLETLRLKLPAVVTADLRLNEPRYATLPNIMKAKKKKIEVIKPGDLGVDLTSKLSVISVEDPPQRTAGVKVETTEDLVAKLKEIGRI
UniProt Q14320: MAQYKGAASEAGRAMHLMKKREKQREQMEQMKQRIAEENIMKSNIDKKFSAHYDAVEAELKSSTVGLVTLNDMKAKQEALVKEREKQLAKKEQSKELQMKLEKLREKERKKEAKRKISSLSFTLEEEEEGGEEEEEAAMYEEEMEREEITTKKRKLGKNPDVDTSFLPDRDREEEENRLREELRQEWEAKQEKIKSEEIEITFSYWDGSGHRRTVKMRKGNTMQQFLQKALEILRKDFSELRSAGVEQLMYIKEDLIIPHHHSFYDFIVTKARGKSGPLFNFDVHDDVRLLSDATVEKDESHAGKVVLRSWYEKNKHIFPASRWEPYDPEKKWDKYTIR
UniProt Q96GK7: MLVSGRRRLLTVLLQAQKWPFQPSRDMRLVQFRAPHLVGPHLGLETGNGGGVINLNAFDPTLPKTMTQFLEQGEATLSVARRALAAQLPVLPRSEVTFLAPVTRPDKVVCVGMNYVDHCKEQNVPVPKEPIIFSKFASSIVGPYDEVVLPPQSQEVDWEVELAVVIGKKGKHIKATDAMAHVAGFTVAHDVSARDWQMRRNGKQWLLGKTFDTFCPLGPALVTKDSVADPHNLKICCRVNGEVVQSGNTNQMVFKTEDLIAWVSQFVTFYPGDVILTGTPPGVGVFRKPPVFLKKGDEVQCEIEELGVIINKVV
UniProt Q96KR6: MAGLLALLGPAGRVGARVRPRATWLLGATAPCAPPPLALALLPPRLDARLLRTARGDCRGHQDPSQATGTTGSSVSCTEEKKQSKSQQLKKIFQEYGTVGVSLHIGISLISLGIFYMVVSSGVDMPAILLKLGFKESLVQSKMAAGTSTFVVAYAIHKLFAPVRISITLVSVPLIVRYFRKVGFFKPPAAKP
UniProt Q5RKV6, whole entry, looked up: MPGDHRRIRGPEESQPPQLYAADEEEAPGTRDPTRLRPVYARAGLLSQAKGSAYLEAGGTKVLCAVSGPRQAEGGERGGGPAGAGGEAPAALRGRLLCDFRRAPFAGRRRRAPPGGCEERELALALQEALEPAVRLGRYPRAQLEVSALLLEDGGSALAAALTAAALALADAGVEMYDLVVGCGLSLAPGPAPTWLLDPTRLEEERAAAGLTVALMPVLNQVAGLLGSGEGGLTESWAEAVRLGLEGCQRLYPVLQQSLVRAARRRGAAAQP
UniProt Q86UY5: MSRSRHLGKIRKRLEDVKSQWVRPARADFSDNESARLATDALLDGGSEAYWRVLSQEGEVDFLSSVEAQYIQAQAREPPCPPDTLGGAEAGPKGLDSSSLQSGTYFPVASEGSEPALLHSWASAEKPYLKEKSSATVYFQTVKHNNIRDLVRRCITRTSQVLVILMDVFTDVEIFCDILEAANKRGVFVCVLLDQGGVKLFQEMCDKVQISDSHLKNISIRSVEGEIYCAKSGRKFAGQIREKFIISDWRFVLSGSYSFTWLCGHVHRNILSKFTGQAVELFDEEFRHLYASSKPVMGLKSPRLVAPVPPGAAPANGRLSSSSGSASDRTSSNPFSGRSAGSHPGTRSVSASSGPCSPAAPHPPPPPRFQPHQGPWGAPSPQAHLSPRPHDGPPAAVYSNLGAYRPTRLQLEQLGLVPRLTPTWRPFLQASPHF
UniProt Q9Y5Q0: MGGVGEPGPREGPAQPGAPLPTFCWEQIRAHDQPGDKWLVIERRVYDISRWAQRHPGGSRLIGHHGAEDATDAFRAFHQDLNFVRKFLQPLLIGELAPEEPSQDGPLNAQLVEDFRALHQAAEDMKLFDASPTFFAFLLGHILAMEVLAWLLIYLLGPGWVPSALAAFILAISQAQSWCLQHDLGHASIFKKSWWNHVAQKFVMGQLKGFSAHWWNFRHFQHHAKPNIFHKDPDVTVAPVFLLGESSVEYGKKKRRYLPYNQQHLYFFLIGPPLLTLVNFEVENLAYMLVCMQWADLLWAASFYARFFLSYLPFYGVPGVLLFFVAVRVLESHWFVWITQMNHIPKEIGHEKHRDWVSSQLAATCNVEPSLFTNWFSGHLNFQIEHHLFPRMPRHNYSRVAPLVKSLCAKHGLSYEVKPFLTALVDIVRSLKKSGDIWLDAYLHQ
UniProt Q9NZB2: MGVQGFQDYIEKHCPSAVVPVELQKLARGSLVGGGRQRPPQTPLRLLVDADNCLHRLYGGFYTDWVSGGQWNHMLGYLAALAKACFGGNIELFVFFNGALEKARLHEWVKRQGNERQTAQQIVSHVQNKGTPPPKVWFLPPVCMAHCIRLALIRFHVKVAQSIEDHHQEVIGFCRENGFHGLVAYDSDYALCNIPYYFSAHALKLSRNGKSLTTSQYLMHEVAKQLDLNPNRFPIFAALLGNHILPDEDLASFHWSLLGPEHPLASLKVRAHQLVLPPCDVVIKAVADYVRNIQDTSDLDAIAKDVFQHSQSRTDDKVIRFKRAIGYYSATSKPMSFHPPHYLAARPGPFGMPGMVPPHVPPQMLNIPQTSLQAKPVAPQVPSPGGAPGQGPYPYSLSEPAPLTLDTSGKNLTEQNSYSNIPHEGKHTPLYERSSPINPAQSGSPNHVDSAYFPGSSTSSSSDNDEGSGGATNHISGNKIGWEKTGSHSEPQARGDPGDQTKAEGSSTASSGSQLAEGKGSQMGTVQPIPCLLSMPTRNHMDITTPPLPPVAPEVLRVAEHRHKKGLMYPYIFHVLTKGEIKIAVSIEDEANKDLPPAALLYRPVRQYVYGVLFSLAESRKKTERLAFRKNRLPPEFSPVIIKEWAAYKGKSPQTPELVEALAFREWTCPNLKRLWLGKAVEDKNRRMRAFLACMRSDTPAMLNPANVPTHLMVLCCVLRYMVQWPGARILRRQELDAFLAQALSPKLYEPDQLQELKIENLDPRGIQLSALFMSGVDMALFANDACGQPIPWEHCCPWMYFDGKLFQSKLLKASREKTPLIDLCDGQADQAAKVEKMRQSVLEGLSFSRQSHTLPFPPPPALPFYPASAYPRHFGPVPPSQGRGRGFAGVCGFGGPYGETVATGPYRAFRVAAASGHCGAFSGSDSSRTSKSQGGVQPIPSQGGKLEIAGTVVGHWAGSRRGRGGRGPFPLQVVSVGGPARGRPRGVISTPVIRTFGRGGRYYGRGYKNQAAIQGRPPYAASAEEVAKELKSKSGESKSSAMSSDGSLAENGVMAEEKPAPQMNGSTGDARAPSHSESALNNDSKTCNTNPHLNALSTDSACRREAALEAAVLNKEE
UniProt Q9NQT4, whole entry, looked up: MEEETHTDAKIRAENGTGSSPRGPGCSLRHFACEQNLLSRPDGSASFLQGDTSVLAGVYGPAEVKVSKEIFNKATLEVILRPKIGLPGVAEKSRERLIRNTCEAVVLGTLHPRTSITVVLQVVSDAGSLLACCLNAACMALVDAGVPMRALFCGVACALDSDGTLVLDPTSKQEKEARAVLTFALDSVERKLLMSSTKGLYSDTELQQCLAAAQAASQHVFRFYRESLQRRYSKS
UniProt Q96A26: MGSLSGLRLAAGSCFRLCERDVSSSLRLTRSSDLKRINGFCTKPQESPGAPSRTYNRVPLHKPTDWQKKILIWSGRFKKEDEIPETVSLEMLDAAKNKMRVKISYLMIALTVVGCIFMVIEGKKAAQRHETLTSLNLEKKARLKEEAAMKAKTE
UniProt Q9NPD3, whole entry, looked up: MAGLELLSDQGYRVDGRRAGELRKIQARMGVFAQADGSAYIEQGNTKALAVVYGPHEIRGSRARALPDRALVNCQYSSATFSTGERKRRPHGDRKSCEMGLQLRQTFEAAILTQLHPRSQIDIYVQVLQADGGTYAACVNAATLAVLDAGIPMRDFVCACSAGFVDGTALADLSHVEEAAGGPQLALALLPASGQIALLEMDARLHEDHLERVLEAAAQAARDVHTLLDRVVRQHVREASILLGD
UniProt Q96DF8: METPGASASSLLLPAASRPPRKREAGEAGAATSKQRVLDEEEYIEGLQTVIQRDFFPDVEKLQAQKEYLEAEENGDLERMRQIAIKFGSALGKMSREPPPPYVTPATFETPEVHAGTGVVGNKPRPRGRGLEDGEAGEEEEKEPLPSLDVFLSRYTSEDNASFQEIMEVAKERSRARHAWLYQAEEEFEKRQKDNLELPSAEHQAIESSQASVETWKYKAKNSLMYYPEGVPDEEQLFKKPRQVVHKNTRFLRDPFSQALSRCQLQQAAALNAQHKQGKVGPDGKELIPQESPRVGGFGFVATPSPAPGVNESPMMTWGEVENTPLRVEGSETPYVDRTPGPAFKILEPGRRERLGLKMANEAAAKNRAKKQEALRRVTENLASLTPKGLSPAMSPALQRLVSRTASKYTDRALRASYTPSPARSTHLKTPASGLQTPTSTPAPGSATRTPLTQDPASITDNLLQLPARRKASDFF
UniProt Q9NSI2: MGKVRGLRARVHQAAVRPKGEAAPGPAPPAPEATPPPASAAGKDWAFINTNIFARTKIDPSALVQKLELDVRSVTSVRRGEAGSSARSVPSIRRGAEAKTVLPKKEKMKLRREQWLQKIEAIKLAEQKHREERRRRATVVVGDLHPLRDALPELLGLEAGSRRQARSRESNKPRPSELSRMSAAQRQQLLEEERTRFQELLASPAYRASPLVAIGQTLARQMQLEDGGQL
UniProt P10768: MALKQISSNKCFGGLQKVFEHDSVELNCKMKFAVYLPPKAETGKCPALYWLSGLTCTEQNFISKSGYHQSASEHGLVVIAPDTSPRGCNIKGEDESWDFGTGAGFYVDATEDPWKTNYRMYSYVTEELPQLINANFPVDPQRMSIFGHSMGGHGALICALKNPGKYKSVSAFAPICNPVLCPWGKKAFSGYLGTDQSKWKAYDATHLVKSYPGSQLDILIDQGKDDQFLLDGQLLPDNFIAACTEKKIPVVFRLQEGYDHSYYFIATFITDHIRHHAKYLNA
UniProt Q96DZ1: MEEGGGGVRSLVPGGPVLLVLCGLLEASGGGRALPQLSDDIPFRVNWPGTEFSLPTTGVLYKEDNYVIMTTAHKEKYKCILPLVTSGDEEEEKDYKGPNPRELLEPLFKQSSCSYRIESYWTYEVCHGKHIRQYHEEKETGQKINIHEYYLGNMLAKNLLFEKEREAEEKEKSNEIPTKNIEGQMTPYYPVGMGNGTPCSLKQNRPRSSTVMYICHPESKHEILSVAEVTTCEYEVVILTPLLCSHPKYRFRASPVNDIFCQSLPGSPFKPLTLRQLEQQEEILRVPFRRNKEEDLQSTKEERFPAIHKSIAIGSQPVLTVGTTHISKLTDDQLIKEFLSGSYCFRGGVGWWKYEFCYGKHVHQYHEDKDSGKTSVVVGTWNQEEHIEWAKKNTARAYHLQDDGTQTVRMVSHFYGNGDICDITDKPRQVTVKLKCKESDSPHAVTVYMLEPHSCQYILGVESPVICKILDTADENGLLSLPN

This is one part of the list.

Compound in the first assay: CS(=O)(=O)CCNCc1ccc(-c2ccc3ncnc(Nc4ccc(OCc5cccc(F)c5)c(Cl)c4)c3c2)o1 [lapatinib]
The assay is described as follows: log2 fold change, soluble protein after heating vs DMSO (PISA); higher = thermal stabilisation; K562 lysate, 10 uM; active = over 0.2 and 3.5 SD of the protein, either way, in both replicates (recomputed). In a few lines: (§1)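 Dounce homogenisation of K562 pellets in PBS pH 7.4 with 1 mM MgCl2 produced a crude extract, used at 1 mg/mL protein. Exposure to 10 μM compound lasted 30 min, and aliquots were then heated for 3 min across 48°C-58°C, pooled and brought to 0.5% NP-40 at 4°C. The supernatant after 21,000xg for 90 min was quantified by TMTpro 16plex LC-MS/MS with channel sums equalised. Duplicate values are given as log-two fold change in thermal stability relative to solvent controls.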
Turning to ESYT1 isoform 2 (UniProt Q9BSJ8), the log2 fold change is inactive: -0.002.
On the same count and under the same terms, to FAHD1 (UniProt Q6P587) belongs inactive: 0; to FAM49B (UniProt Q9NUQ9), inactive: -0.011; to FABP5 (UniProt Q01469), inactive: 0.06.
Still for that read-out and setting: as for FAM83D (UniProt Q9H4H8), the figure is inactive: -0.01; as for EXTL2 (UniProt Q9UBQ6), inactive: -0.071.
Same read-out and setting: to FAM118A (UniProt Q9NWS6) belongs inactive: 0.02; to ESYT2 (UniProt H7BXI1), inactive: -0.008.
For ETFB (UniProt P38117), the log2 fold change is inactive: 0.004.
Same read-out and setting: to ERP29 (UniProt P30040) belongs inactive: -0.002.
FAM50A (UniProt Q14320): the log2 fold change is inactive: -0.003.
With ERICH1 (UniProt Q86X53), the log2 fold change was inactive: -0.274.
The same measure, in the same setting: as for FAHD2A (UniProt Q96GK7), the figure is inactive: -0.013; as for FAM210B (UniProt Q96KR6), inactive: 0.065.
Regarding ETF1 (UniProt P62495), the log2 fold change was inactive: -0.017.
For the target EXOSC6 (UniProt Q5RKV6), the log2 fold change is inactive: -0.023.
As for EXOC7 (UniProt Q9UPT5), the log2 fold change was inactive: -0.029.

Compound in a further assay: CS(=O)(=O)N1CCN(Cc2cc3nc(-c4cccc5[nH]ncc45)nc(N4CCOCC4)c3s2)CC1 [pictilisib]
The description is as above. In a few lines:
as §1
For ETNK1 (UniProt Q9HBU6), the log2 fold change is inactive: -0.008.
For the target FAM83A (UniProt Q86UY5), the log2 fold change was inactive: 0.021.
Same read-out and setting: as for FADS3 (UniProt Q9Y5Q0), the figure is inactive: -0.014; as for EXOC2 (UniProt Q96KP1), inactive: -0.011; as for FAM120A isoform 6 (UniProt Q9NZB2), inactive: -0.031.
The same measure, in the same setting: to EXOSC5 (UniProt Q9NQT4) belongs inactive: 0.017.
As to FAM162A (UniProt Q96A26), the log2 fold change was inactive: -0.043.
Turning to EZH2 isoform 2 (UniProt Q15910), the log2 fold change is inactive: -0.004.
For the target EXOC4 (UniProt Q96A65), the log2 fold change is inactive: 0.018.
The same measure, in the same setting: to EXOSC4 (UniProt Q9NPD3) belongs inactive: -0.018.
ESS2 (UniProt Q96DF8): the log2 fold change is inactive: 0.017.
Take EXOC6 (UniProt Q8TAG9): the log2 fold change was inactive: -0.04.
FADS1, A0A0A0MR51: the log2 fold change is inactive: -0.087.
Still for that read-out and setting: to F5 (UniProt P12259) belongs inactive: -0.063; to FAM207A (UniProt Q9NSI2), inactive: 0.018.
Regarding ESD (UniProt P10768), the log2 fold change was inactive: -0.016.
Same read-out and setting: as for FAM122A (UniProt Q96E09), the figure is inactive: -0.027.
For the target FAM114A2 (UniProt Q9NRY5), the log2 fold change is inactive: -0.013.
FAM136A (UniProt Q96C01): the log2 fold change was inactive: -0.069.
Still for that read-out and setting: as for EXOC3 (UniProt O60645), the figure is inactive: -0.033; as for EYA3 (UniProt Q99504), inactive: -0.071; as for ERVK3-1, A0A0U1RQV1, inactive: -0.015.
As for ERLEC1 (UniProt Q96DZ1), the log2 fold change was inactive: 0.003.
In the case of ESYT1 isoform 2 (UniProt Q9BSJ8), the log2 fold change was inactive: -0.019.
On the same count and under the same terms, to FAHD1 (UniProt Q6P587) belongs inactive: -0.02; to FAM49B (UniProt Q9NUQ9), inactive: 0.004; to FABP5 (UniProt Q01469), inactive: 0.011.
Still for that read-out and setting: to FAM83D (UniProt Q9H4H8) belongs inactive: -0.024.
On the same count and under the same terms, to EXTL2 (UniProt Q9UBQ6) belongs inactive: -0.282.
In the case of FAM118A (UniProt Q9NWS6), the log2 fold change was inactive: -0.006.
The same measure, in the same setting: to ESYT2 (UniProt H7BXI1) belongs inactive: 0.01; to ETFB (UniProt P38117), inactive: 0.006; to ERP29 (UniProt P30040), inactive: 0.017.
Same read-out and setting: as for FAM50A (UniProt Q14320), the figure is inactive: 0.005.
In the case of ERICH1 (UniProt Q86X53), the log2 fold change is inactive: -0.038.
In the case of FAHD2A (UniProt Q96GK7), the log2 fold change was inactive: -0.003.
Regarding FAM210B (UniProt Q96KR6), the log2 fold change is inactive: 0.001.
As for ETF1 (UniProt P62495), the log2 fold change was inactive: 0.
For EXOSC6 (UniProt Q5RKV6), the log2 fold change is inactive: 0.026.
With EXOC7 (UniProt Q9UPT5), the log2 fold change was inactive: 0.005.
